Measurements published in PubChem BioAssay (NCATS).
This is one part of the list. Shown are side measurements of this screen, not its main read-out; they come without a call. Compounds called inactive in the main read-out are mostly missing here. Words in brackets tell the shape of the fitted curve; partial curves, single points and poor fits give uncertain potencies.

Assay: qHTS Assay for Inhibitors of PDE-IV (AID 607)
Details: HEK293 ACTOne CNG channel cells, membrane potential fluorescence; measured here: parental cell counter-screen
Outline: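 Live HEK293 cells with a modified cyclic nucleotide-gated (CNG) channel report intracellular cAMP via membrane-potential dye fluorescence (ex 535/em 590 nm). Endogenous PDE-IV was targeted. Compounds were tested at up to 22.9 uM final; RO 20-1724 100 uM served as control.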

Question: Which AC50 does the source give for `Cc1cccc(CNc2ncnc3ccc(-c4ccccc4CN(C)C)cc23)c1` here?
Answer: Its AC50 is 12.6 µM [rising, partial curve].

Question: With `COc1ccccc1-c1ccc2ncnc(Nc3ccccc3)c2c1` as the molecule, how does the AC50 read?
Answer: Its AC50 is 12.6 µM [rising, single point].

Question: Which AC50 does the source give for `CCc1c2c(nc3cccc(C(C)C)c13)-c1cccc(=O)n1C2` here?
Answer: The AC50 was 3.98 µM [rising, single point].

Question: Which AC50 does the source give for `COC(=O)[C@@]1(Cc2ccc(F)cc2)[C@H]2c3cc(C(=O)N4CCCC4)n(Cc4ccc(Cl)c(C(F)(F)F)c4)c3C[C@H]2CN1C(=O)c1ccccc1` here?
Answer: Its AC50 is 12.6 µM [rising, single point].

Question: For `C[C@@H](C(=O)O)c1cccc(C(=O)c2ccccc2)c1`, which AC50 is on record?
Answer: The AC50 was 3.16 µM [rising, partial curve, poor fit].

Question: With `CCC/C=C(\CCC)C(NC(=O)c1ccc(C(=O)OC)cc1)c1ccc(C(=O)OC)cc1` (stereo not drawn) as the molecule, how does the AC50 read?
Answer: The AC50 was 12.6 µM [rising, single point].

Question: For `Cc1cccc(CNc2cc(-c3ccccc3CN(C)C)ncn2)c1`, which AC50 is on record?
Answer: The AC50 was 12.6 µM [rising, single point].

Question: For `C[C@@H](C(=O)O)c1ccc(C(=O)c2cccs2)cc1`, which AC50 is on record?
Answer: Its AC50 is 2.51 µM [rising, full curve, poor fit].

Question: With `CN(C)Cc1ccccc1-c1nc(NCc2ccccc2)c2ccccc2n1` as the molecule, how does the AC50 read?
Answer: The AC50 was 10 µM [rising, partial curve].

Question: Which AC50 does the source give for `O=C1[C@@H]2C=CC=CC2=NC(=S)N1CCN1CCC(=C(c2ccc(F)cc2)c2ccc(F)cc2)CC1` here?
Answer: The AC50 was 15.8 µM [rising, partial curve].

Question: For `C[C@@]12CC3CC(N)(C1)C[C@@](C)(C3)C2`, which AC50 is on record?
Answer: Its AC50 is 10 µM [rising, partial curve, poor fit].

Question: With `CN(C)Cc1ccccc1-c1nc(N2CCOCC2)c2ccccc2n1` as the molecule, how does the AC50 read?
Answer: The AC50 was 12.6 µM [rising, partial curve].

Question: Which AC50 does the source give for `CCCCCCC/C=C\CCCCCCCCC(=O)O` here?
Answer: The AC50 was 0.00126 µM [falling, full curve, poor fit].
